According to patent publication US20220290165A1:
No constants are given. Whether binding was seen depends on the method and setting. Binding seen in cells or lysates may run through a third protein. Binding can be weak; no strength is given.

Biological target: Trichoderma reesei tsp1 (Trichoderma reesei)
Experiment: SBTI-agarose affinity purification from M44 culture supernatant; LC-MS/MS of gel sections

binding: binds
B1: soybean trypsin inhibitor (SBTI) (protein, UniProt P01070 25-205, looked up)
chain: DFVLDNEGNPLENGGTYYILSDITAFGGIRAAPTGNERCPLTVVQSRNELDKGIGTIISSPYRIRFIAEGHPLSLKFDSFAVIMLCVGIPTEWSVVEDLPEGPAVKIGENKDAMDGWFRLERVSDDEFNNYKLVFCPQQAEDDKCGDIGISIDHDDGTRRLVVSKNKPLVVQFQKLDKESL
modifications: coupled to agarose in the affinity purification
